Compound in this test: CCc1cnccc1C(=O)Nc1cc2c(cc1F)NC(=O)CC2
Briefly: melting temperature shift (DMSO Tm minus MBE1-treated Tm) in cellular thermal proteome profiling; higher = less thermal stabilization by MBE1 (negative = stabilized by MBE1). The note with it: A375.

Amino acid sequences for entries named in this document (tags omitted). A change or cut given only in a name is not applied to a line headed by its entry.
UniProt P43897: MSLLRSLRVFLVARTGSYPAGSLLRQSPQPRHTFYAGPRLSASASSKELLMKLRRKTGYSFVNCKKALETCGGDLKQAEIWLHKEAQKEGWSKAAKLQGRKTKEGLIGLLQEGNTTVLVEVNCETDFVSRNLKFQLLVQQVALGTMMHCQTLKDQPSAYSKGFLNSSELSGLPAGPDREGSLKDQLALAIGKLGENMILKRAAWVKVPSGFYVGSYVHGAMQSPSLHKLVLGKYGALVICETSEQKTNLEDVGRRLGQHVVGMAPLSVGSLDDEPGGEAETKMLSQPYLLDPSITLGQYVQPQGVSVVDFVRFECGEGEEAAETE
UniProt P49368: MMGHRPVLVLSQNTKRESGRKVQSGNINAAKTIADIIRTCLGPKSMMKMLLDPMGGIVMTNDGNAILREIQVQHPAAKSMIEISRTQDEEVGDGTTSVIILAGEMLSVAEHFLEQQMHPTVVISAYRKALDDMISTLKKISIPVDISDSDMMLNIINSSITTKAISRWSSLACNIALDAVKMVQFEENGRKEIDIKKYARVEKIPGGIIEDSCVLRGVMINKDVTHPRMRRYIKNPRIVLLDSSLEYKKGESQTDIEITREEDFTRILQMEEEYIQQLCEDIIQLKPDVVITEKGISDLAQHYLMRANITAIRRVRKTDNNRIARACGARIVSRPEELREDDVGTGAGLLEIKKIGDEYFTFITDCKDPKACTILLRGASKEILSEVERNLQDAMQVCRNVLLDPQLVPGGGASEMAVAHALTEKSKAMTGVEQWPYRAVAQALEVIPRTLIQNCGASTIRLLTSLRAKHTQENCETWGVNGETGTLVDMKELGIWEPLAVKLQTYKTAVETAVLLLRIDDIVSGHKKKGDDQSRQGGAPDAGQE
UniProt P50613: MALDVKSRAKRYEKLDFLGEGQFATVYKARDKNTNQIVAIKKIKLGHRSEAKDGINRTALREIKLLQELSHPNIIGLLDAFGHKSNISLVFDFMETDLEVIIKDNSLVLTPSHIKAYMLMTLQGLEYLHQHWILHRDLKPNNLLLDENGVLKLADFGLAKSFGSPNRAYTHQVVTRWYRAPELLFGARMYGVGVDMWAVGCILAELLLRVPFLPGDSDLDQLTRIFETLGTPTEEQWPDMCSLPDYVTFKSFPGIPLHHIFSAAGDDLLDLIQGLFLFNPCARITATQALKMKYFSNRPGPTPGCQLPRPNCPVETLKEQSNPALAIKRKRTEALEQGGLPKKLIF
UniProt P40306: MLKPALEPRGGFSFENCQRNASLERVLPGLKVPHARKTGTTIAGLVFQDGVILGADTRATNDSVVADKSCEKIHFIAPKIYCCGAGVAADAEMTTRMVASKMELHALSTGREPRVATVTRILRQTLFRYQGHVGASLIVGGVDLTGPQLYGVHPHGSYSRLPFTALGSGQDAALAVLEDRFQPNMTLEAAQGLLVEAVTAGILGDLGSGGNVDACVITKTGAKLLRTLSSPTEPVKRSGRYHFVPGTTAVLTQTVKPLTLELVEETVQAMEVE
UniProt P38117: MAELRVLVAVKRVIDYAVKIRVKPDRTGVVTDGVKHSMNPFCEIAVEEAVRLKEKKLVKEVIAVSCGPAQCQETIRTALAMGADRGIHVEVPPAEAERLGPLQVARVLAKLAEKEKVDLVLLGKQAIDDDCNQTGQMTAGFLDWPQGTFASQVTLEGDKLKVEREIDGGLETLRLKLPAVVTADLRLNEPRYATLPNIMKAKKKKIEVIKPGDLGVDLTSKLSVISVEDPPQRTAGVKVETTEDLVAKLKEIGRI
UniProt P43121, whole entry: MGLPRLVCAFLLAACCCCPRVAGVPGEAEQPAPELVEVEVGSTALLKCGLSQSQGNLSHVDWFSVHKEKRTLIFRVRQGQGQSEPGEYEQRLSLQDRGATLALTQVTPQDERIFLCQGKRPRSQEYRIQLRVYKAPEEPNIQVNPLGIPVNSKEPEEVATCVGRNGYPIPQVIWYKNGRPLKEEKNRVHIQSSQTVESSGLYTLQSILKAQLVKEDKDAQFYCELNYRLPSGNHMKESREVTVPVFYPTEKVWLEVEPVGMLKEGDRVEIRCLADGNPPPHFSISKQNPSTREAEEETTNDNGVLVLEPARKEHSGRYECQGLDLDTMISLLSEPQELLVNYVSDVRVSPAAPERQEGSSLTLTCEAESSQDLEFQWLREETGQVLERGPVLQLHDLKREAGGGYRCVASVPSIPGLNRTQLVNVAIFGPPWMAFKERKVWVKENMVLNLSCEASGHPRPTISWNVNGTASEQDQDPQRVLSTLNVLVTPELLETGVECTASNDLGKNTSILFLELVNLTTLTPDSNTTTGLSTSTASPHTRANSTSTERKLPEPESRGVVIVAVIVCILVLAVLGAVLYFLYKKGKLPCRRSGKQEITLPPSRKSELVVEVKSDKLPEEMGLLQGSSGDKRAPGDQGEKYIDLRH
UniProt P49336: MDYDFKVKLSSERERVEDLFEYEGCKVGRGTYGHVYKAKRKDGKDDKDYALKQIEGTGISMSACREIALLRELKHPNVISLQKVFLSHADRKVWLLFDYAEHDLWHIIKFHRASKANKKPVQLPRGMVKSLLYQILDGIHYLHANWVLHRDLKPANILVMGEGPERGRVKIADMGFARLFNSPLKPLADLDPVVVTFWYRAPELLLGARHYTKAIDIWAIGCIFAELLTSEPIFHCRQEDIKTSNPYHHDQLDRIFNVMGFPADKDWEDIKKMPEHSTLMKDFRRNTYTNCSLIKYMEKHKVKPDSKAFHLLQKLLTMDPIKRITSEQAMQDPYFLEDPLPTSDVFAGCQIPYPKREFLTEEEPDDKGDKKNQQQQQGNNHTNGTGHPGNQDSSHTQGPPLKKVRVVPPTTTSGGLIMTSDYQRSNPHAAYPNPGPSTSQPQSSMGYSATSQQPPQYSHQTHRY
UniProt P49137, whole entry, looked up: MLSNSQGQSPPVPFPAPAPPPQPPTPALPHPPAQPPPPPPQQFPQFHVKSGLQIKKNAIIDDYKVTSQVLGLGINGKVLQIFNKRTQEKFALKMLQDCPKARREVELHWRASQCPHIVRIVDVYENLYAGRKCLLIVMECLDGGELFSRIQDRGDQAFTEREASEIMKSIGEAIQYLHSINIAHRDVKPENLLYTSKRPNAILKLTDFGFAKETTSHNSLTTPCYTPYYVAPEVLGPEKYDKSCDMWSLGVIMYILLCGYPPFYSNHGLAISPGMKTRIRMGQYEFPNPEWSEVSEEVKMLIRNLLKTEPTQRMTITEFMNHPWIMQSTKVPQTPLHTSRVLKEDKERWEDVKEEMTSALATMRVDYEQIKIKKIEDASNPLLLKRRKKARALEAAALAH
UniProt P48634: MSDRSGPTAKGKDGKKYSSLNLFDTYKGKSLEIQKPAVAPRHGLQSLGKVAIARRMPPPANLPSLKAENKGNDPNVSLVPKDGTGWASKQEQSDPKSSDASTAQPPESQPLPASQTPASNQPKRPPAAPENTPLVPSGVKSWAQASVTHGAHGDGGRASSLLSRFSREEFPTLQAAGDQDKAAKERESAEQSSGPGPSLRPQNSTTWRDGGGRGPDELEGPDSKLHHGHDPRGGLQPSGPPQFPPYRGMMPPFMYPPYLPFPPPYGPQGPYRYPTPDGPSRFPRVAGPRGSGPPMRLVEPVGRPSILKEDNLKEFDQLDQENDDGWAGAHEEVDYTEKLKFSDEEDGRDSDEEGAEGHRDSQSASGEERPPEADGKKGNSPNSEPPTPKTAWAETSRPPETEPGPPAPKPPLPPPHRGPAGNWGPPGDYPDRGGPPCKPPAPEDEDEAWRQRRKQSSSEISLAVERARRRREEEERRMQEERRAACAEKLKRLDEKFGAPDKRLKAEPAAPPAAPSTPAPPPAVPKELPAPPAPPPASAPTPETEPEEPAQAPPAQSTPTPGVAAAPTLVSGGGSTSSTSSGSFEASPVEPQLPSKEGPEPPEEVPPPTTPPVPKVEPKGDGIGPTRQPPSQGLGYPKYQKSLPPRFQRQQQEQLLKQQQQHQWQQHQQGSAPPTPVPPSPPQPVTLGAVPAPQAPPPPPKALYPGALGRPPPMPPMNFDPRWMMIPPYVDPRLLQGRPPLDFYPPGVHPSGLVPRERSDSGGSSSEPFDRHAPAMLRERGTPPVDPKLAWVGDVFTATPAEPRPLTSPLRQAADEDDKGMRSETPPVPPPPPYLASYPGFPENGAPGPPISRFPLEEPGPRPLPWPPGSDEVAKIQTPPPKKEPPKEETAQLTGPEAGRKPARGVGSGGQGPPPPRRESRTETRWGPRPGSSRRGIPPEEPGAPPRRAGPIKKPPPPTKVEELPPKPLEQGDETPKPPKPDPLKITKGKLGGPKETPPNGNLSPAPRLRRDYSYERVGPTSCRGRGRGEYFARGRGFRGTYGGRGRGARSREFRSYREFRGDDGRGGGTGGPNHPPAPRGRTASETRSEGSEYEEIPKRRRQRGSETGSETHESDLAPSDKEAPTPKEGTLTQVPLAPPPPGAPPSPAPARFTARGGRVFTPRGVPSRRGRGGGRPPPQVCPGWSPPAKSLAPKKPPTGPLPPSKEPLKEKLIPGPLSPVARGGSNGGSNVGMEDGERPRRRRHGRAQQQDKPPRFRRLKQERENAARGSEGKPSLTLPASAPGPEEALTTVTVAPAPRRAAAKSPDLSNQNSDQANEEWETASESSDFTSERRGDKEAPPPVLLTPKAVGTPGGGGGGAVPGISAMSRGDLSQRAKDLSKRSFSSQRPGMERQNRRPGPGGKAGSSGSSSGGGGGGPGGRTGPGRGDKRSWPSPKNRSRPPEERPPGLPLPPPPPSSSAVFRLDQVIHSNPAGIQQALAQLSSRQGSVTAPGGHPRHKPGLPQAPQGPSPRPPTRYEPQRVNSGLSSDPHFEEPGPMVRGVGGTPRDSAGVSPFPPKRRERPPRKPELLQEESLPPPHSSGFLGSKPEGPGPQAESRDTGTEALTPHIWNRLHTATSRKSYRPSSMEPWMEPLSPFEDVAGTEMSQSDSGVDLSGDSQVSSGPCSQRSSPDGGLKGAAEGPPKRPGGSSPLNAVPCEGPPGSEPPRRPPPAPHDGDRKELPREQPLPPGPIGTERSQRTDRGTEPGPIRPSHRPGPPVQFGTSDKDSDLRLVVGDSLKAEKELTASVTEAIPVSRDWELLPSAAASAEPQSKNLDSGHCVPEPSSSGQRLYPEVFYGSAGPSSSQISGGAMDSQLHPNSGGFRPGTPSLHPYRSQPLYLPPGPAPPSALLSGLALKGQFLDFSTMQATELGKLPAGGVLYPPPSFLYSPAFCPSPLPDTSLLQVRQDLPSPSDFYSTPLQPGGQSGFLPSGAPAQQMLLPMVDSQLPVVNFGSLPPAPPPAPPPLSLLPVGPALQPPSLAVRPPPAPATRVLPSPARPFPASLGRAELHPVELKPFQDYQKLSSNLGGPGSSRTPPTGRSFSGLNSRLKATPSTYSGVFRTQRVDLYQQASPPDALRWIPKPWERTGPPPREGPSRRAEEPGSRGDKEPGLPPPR
UniProt P49736, whole entry: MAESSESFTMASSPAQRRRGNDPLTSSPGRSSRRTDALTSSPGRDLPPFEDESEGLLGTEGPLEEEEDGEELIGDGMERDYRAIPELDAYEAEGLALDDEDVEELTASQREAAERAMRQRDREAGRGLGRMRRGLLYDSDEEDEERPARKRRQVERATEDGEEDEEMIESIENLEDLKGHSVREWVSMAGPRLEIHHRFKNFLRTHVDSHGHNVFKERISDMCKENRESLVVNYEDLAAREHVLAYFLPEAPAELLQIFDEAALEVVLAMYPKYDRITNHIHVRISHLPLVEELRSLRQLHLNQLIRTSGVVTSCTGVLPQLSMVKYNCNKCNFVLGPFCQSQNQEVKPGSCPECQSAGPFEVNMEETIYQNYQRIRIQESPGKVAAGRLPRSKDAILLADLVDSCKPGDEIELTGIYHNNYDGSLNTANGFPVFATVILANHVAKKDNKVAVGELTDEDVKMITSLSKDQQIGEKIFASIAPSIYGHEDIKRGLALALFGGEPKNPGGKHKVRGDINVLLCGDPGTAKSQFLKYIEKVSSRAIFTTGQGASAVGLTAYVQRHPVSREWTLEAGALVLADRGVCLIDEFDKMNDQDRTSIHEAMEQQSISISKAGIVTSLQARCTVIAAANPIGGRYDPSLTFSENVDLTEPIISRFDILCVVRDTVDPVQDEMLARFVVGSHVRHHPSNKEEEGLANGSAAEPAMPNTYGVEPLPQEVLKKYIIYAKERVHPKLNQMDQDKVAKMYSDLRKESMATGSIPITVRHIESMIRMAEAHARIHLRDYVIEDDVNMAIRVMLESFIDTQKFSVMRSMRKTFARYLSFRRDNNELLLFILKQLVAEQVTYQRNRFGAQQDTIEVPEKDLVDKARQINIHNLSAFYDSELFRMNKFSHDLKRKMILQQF
UniProt P50402: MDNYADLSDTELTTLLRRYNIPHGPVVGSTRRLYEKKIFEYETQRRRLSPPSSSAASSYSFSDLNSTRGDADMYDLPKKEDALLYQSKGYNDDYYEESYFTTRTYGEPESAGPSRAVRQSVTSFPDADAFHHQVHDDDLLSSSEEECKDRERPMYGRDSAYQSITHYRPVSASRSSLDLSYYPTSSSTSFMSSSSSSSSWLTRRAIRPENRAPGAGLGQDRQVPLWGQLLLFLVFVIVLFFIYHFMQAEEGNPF

The other results are listed elsewhere or left out. Single values of this set are uncertain.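 Tm was set to 64 °C where no melting was found, and many curves are irregular.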

For the target TSFM (UniProt P43897), the melting temperature shift is, setting by setting: (MBE1 concentration: 100 nM) -0.276 °C; (MBE1 concentration: 1 uM) -0.367 °C.
On to UniProt P50281, for which the melting temperature shift reads like this: (MBE1 concentration: 100 nM) 0.555 °C; (MBE1 concentration: 1 uM) -1.54 °C.
Consider ALDH1A3 (UniProt P47895), for which the melting temperature shift was -1.54 °C (MBE1 concentration: 100 nM) and -1.25 °C (MBE1 concentration: 1 uM).
As for PSEN1 (UniProt P49768), the melting temperature shift (MBE1 concentration: 100 nM) worked out at 0.201 °C.
On to CCT3 (UniProt P49368), for which the melting temperature shift (MBE1 concentration: 100 nM) was -0.682 °C and the melting temperature shift (MBE1 concentration: 1 uM) is -0.347 °C.
On to UniProt P50613, for which the melting temperature shift reads like this: (MBE1 concentration: 100 nM) 0.324 °C; (MBE1 concentration: 1 uM) 0.508 °C.
In the same order, the values of UniProt P40306 are 0.302 °C and -0.94 °C.
For UniProt P40426, the melting temperature shift was determined as 0.256 °C (MBE1 concentration: 100 nM) and 0.336 °C (MBE1 concentration: 1 uM).
SNCA (UniProt P37840): the melting temperature shift by setting is: (MBE1 concentration: 100 nM) -0.679 °C; (MBE1 concentration: 1 uM) -1.54 °C.
For the target ANXA11 (UniProt P50995), the melting temperature shift runs as follows: (MBE1 concentration: 100 nM) -0.243 °C; (MBE1 concentration: 1 uM) -0.167 °C.
As for ETFB (UniProt P38117), the melting temperature shift is, setting by setting: (MBE1 concentration: 100 nM) -0.812 °C; (MBE1 concentration: 1 uM) 0.698 °C.
Regarding MCAM (UniProt P43121), the melting temperature shift (MBE1 concentration: 1 uM) was -1.85 °C.
As for CDK8 (UniProt P49336), the melting temperature shift (MBE1 concentration: 100 nM) is 0.174 °C and the melting temperature shift (MBE1 concentration: 1 uM) was determined as 0.778 °C.
Turning to UTRN (UniProt P46939), the melting temperature shift was -0.731 °C (MBE1 concentration: 100 nM) and -0.553 °C (MBE1 concentration: 1 uM).
Consider MAPKAPK2 (UniProt P49137), for which the melting temperature shift (MBE1 concentration: 100 nM) was 0.171 °C and the melting temperature shift (MBE1 concentration: 1 uM) is -0.0611 °C.
Turning to UniProt P48730, the melting temperature shift (MBE1 concentration: 100 nM) was -0.496 °C.
On to PRRC2A (UniProt P48634), for which the melting temperature shift (MBE1 concentration: 1 uM) is -3.27 °C.
For PTPN9 (UniProt P43378), the melting temperature shift was -0.0518 °C (MBE1 concentration: 100 nM) and -0.301 °C (MBE1 concentration: 1 uM).
Taken in the same sequence, the figures for PHKA1 (UniProt P46020) were 0.169 °C and 0.343 °C.
For ALDH3B1 (UniProt P43353), the melting temperature shift (MBE1 concentration: 100 nM) amounted to 1.23 °C.
Take MCM2 (UniProt P49736): the melting temperature shift is, setting by setting: (MBE1 concentration: 100 nM) 0.189 °C; (MBE1 concentration: 1 uM) 0.0488 °C.
In the case of TAGLN2 (UniProt P37802), the melting temperature shift (MBE1 concentration: 100 nM) was -0.397 °C and the melting temperature shift (MBE1 concentration: 1 uM) was -0.055 °C.
Taken in the same sequence, the figures for RPL14 (UniProt P50914) were -0.611 °C and 0.885 °C.
For IDH3A (UniProt P50213), the melting temperature shift reads like this: (MBE1 concentration: 100 nM) 0.168 °C; (MBE1 concentration: 1 uM) -0.396 °C.
In the same order, the values of EMD (UniProt P50402) are 0.0244 °C and -0.281 °C.
For the target AARS (UniProt P49588), the melting temperature shift is -0.437 °C (MBE1 concentration: 100 nM) and 0.464 °C (MBE1 concentration: 1 uM).

Values taken from the supplement of paper PMC12595434, “Development of retinoid nuclear receptor pathway antagonists through targeting aldehyde dehydrogenase 1A3” (iScience, 2025).
